# Source: paper PMC12700556
# Protein sequences, listed by entry. Tags and fused reporters are not part of them. Lines headed by an entry give the natural chain unless they say otherwise; changes in a name come on top.
# UniProt P15090: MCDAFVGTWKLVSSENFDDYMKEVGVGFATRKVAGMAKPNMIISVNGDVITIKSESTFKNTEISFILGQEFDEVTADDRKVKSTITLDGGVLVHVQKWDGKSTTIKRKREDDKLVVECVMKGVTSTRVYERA
# UniProt P05556: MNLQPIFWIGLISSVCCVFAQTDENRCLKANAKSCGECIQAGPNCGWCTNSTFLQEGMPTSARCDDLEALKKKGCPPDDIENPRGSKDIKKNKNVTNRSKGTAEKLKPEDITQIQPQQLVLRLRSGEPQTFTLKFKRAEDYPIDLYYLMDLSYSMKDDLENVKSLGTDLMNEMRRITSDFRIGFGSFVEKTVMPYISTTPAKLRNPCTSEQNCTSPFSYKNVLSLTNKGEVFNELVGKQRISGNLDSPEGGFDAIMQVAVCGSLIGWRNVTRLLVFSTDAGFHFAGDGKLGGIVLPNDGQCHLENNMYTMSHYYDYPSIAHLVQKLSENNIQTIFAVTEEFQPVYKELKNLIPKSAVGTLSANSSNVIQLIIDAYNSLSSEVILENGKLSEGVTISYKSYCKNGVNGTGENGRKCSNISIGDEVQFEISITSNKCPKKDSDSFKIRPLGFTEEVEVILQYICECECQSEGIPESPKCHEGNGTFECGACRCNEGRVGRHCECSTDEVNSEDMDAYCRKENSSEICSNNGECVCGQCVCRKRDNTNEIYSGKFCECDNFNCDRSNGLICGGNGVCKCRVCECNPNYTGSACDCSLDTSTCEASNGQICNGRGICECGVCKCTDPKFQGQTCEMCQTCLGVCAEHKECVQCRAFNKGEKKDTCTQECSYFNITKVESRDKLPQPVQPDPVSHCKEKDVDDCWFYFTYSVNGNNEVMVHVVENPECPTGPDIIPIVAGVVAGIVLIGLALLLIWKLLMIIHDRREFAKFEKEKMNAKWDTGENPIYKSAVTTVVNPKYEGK
# No constants are given. Whether binding was seen depends on the method and setting. Binding seen in cells or lysates may run through a third protein. Here binding means that the protein was enriched with, or labelled near, the bait; the list need not be complete.
# Biological target: biotinylated recombinant human FABP4 protein (fatty acid-binding protein 4) (human) (UniProt P15090)
# Test: affinity purification with mass spectrometry; biotinylated rhFABP4 on the membrane surface of Huh7 cells, streptavidin capture, mass spectrometry (n = 1); surface proteins detected with >=2 unique peptides; only the target purified
substance,measurement,value
integrin β 1 (ITGB1) (from UniProt P05556 21-798) (receptor),binding,binds
